PubChem BioAssay AID1508588, Peter MacCallum Cancer Centre | 2020

Screen: 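Which gene losses make BRAF-mutant melanoma cells more responsive to vemurafenib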 (primary screen)
Cell system: human WM266.4 melanoma cells (BRAF V600 mutant)
Reagents: siRNA pool against human genes, 40 nM
Timing: 96 h from transfection to read-out
Challenge: vemurafenib 300 nM (about IC25), added 48 h after transfection, for 48 h; comparison arm got DMSO vehicle only
Detection: 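Ratios to non-targeting siRNA for cell gain, counted as DAPI nuclei after minus before drug and averaged over two replicates, and for absorbance-read medium lactate per cell; both binned into fold-change classes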
Reading the numbers: cell gain with vemurafenib: higher = more cell gain than with non-targeting siRNA; lactate per cell with vemurafenib: higher = more lactate made per cell
Active means: 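a knock-down counts as enhancing when its fold-change classes with vehicle and with vemurafenib, taken together, show a stronger drug effect on cell gain or lactate per cell; exact class pairs not stated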
Calls: active = enhances vemurafenib effect; inactive = no enhancement seen
Here is a random part of about 18,000 reagents tested. Over the whole deposit, 790 (4.4%) are marked active. 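Calls rest on a combination of fold-change classes in drug and vehicle arms, not all shown here.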

target gene	PubChem SID	cell gain with vemurafenib	lactate per cell with vemurafenib	Outcome
ARHGAP17 (Rho GTPase activating protein 17)	SID135621552	1.39	0.71	inactive
R3HDML (R3H domain containing like)	SID152150498	0.87	1.4	inactive
PPP1CC (protein phosphatase 1 catalytic subunit gamma)	SID134311989	0.71	1.12	inactive
CEP57L1 (centrosomal protein 57 like 1)	SID152147498	0.37	0.54	inactive
ISG20 (interferon stimulated exonuclease gene 20)	SID134320007	0.81	1.01	inactive
OR52N4 (olfactory receptor family 52 subfamily N member 4)	SID152150209	0.67	1.01	inactive
HCN4	SID134311621	0.68	0.84	inactive
SEMA3B (semaphorin 3B)	SID152155120	0.34	1.23	inactive
TPM3 (tropomyosin 3)	SID152152018	0.73	0.76	inactive
NAMPT (nicotinamide phosphoribosyltransferase)	SID152148465	0.92	1.14	inactive
CES5A (carboxylesterase 5A)	SID134313469	0.83	0.95	inactive
TATDN1 (TatD DNase domain containing 1)	SID152146933	0.25	0.79	inactive
CDCA8 (cell division cycle associated 8)	SID152147188	-0.23	6.57	inactive
OCEL1 (occludin/ELL domain containing 1)	SID134310404	0.73	0.62	inactive
ITGB3 (integrin subunit beta 3)	SID134310278	0.5	0.62	inactive
SLC2A4	SID152148512	0.46	0.77	inactive
FOLH1 (folate hydrolase 1)	SID135621091	0.49	0.46	active
ULK3 (unc-51 like kinase 3)	SID152148646	0.74	1.06	inactive
NICN1 (nicolin 1, tubulin polyglutamylase complex subunit)	SID135623558	0.33	1.24	inactive
ZBTB7A (zinc finger and BTB domain containing 7A)	SID134324459	1.04	0.54	inactive
TXN2 (thioredoxin 2)	SID134321384	0.01	0.94	inactive
TIMM8B (translocase of inner mitochondrial membrane 8 homolog B)	SID134313361	0.55	0.45	active
PPAN (peter pan homolog)	SID152153676	0.83	1.08	inactive
TM7SF3 (transmembrane 7 superfamily member 3)	SID134311175	0.54	1.23	inactive
LGALS3 (galectin 3)	SID152148172	0.43	0.98	inactive
LINC01599 (long independently transcribed non-coding RNA 1599)	SID152152291	0.41	0.75	inactive
SPATA45 (spermatogenesis associated 45)	SID152150270	0.39	1.79	inactive
DDX25 (DEAD-box helicase 25)	SID152151152	0.57	1.13	inactive
EVA1A (eva-1 homolog A, regulator of programmed cell death)	SID135622821	0.47	0.99	inactive
IQSEC3 (IQ motif and Sec7 domain ArfGEF 3)	SID135624885	0.72	1.32	inactive
IRF2 (interferon regulatory factor 2)	SID135622181	0.8	1	inactive
PLAUR (plasminogen activator, urokinase receptor)	SID135621189	0.43	1.23	inactive
MAPK12 (mitogen-activated protein kinase 12)	SID152156302	0.67	0.74	inactive
FHL1 (four and a half LIM domains 1)	SID134319876	0.58	-0.1	active
BNIP5 (BCL2 interacting protein 5)	SID152150435	0.48	0.8	inactive
DMRTC1 (DMRT like family C1)	SID135622875	0.16	3.32	inactive
EIF3E (eukaryotic translation initiation factor 3 subunit E)	SID135621953	0.13	1.09	inactive
IGSF9 (immunoglobulin superfamily member 9)	SID134318239	0.5	1.17	inactive
DHRS13 (dehydrogenase/reductase 13)	SID152148655	0.69	0.79	inactive
SEC61B (SEC61 translocon subunit beta)	SID134325078	0.09	1.33	inactive
OR51A7 (olfactory receptor family 51 subfamily A member 7)	SID152147157	0.65	0.71	inactive
CIROZ	SID135623539	0.68	0.94	inactive
MAP1S (microtubule associated protein 1S)	SID152153919	0.63	0.97	inactive
MRPL28 (mitochondrial ribosomal protein L28)	SID134321552	0.7	0.75	inactive
LRRTM1 (leucine rich repeat transmembrane neuronal 1)	SID135623507	0.07	0.92	inactive
CPEB2 (cytoplasmic polyadenylation element binding protein 2)	SID134322979	0.14	0.94	inactive
AGPAT3 (1-acylglycerol-3-phosphate O-acyltransferase 3)	SID134313484	0.65	1	inactive
CT45A1 (cancer/testis antigen family 45 member A1)	SID135625392	0.46	1.06	inactive
KL (klotho)	SID152153205	0.92	0.7	active
MFSD11 (major facilitator superfamily domain containing 11)	SID134318492	0.68	1.19	inactive
XRCC4 (X-ray repair cross complementing 4)	SID134310490	0.88	0.73	inactive
TSNAX (translin associated factor X)	SID134316488	0.68	0.06	inactive
BOK (BCL2 family apoptosis regulator BOK)	SID134310433	0.55	0.92	inactive
ACSM2A (acyl-CoA synthetase medium chain family member 2A)	SID135624306	0.36	0.67	inactive
TRIM24 (tripartite motif containing 24)	SID152156144	0.45	1.88	inactive
BEST2 (bestrophin 2)	SID152153101	0.89	0.94	inactive
TCL1B (TCL1 family AKT coactivator B)	SID134323650	0.61	1.04	inactive
THSD4 (thrombospondin type 1 domain containing 4)	SID152147857	-0.04	3	inactive
GNPNAT1 (glucosamine-phosphate N-acetyltransferase 1)	SID135620959	0.49	1.7	inactive
PSG5 (pregnancy specific beta-1-glycoprotein 5)	SID134320002	0.6	1.34	inactive
GPRASP2 (G protein-coupled receptor associated sorting protein 2)	SID152155733	0.61	0.6	inactive
MRPS28 (mitochondrial ribosomal protein S28)	SID134317716	0.76	0.86	inactive
PRSS21 (serine protease 21)	SID135620726	0.4	0.52	inactive
SPIN2B (spindlin family member 2B)	SID135625366	0.68	0.59	inactive
ZNF319 (zinc finger protein 319)	SID152148413	0.6	0.7	inactive
SPMIP4 (sperm microtubule inner protein 4)	SID134319950	-0.18	2.2	inactive
NMNAT3 (nicotinamide nucleotide adenylyltransferase 3)	SID134313546	0.16	1.27	inactive
WASHC5 (WASH complex subunit 5)	SID135624149	0.98	0.3	inactive
TBL3 (transducin beta like 3)	SID152154073	0.76	0.89	inactive
ALKBH2 (alkB homolog 2, alpha-ketoglutarate dependent dioxygenase)	SID152147525	0.37	1.63	inactive
CDIN1 (CDAN1 interacting nuclease 1)	SID134318992	0.22	1.01	inactive
ANKRD13D (ankyrin repeat domain 13D)	SID135624585	0.18	2.33	inactive
GIGYF1 (GRB10 interacting GYF protein 1)	SID152154577	0.79	0.73	inactive
PFKM (phosphofructokinase, muscle)	SID56479129	0.5	0.62	inactive
DLST (dihydrolipoamide S-succinyltransferase)	SID135621866	0.85	0.8	inactive
SFTPB (surfactant protein B)	SID135623715	0.65	0.64	inactive
TYW5 (tRNA-yW synthesizing protein 5)	SID152150082	0.34	1.01	inactive
BORCS7 (BLOC-1 related complex subunit 7)	SID152149719	0.65	0.88	inactive
NAA50 (N-alpha-acetyltransferase 50, NatE catalytic subunit)	SID135622775	0.43	0.85	inactive
CDIP1 (cell death inducing p53 target 1)	SID152151607	0.6	0.62	inactive
EXOC3 (exocyst complex component 3)	SID152150335	0.6	0.84	inactive
CCL11 (C-C motif chemokine ligand 11)	SID134312763	1.08	0.99	inactive
DYNLRB1 (dynein light chain roadblock-type 1)	SID134315085	0.95	0.99	inactive
LCE3D (late cornified envelope 3D)	SID135622844	0.32	0.97	inactive

11 neighbouring entries from above, for reference:
target gene	PubChem SID	cell gain with vemurafenib	lactate per cell with vemurafenib	Outcome
FOLH1 (folate hydrolase 1)	SID135621091	0.49	0.46	active
ULK3 (unc-51 like kinase 3)	SID152148646	0.74	1.06	inactive
NICN1 (nicolin 1, tubulin polyglutamylase complex subunit)	SID135623558	0.33	1.24	inactive
ZBTB7A (zinc finger and BTB domain containing 7A)	SID134324459	1.04	0.54	inactive
TXN2 (thioredoxin 2)	SID134321384	0.01	0.94	inactive
TIMM8B (translocase of inner mitochondrial membrane 8 homolog B)	SID134313361	0.55	0.45	active
PPAN (peter pan homolog)	SID152153676	0.83	1.08	inactive
TM7SF3 (transmembrane 7 superfamily member 3)	SID134311175	0.54	1.23	inactive
LGALS3 (galectin 3)	SID152148172	0.43	0.98	inactive
LINC01599 (long independently transcribed non-coding RNA 1599)	SID152152291	0.41	0.75	inactive
SPATA45 (spermatogenesis associated 45)	SID152150270	0.39	1.79	inactive
